The results in this text go back to patent publication US6020166, “Nucleic acid encoding an altered telomere repeat binding factor 2” (The Rockfeller University).

The chains behind the UniProt entries cited, without tags or fusion partners. Where a name states a change or a piece, a line headed by the entry shows the natural chain unless it says otherwise.
UniProt P54274: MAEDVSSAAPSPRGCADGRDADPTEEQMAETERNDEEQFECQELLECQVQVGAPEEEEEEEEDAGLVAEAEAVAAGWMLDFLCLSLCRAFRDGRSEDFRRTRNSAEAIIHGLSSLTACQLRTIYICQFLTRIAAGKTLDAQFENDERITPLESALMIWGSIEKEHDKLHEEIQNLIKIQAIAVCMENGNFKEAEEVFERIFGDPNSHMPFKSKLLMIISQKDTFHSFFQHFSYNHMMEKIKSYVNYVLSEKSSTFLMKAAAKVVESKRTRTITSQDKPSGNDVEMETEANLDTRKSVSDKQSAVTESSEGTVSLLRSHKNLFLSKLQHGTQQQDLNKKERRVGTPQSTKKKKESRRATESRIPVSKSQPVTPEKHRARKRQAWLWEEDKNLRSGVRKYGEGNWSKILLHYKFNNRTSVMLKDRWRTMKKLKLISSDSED

In data set [1] the target is T1, A-TRF1 66-385 in HeLa cells (Homo sapiens) (UniProt P54274).
T1 sequence: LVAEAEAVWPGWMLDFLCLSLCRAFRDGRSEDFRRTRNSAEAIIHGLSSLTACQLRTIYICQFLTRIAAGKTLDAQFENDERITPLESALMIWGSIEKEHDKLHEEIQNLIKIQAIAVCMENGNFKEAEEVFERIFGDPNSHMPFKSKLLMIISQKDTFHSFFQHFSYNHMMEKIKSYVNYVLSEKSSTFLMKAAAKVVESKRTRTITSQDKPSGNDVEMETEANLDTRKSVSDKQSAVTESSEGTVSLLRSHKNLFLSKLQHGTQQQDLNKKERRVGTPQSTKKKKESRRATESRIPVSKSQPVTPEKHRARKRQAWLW
As to the kind of experiment: activity in cells. Conditions: homogeneous nuclear distribution; displaces endogenous TRF1; protein in cells; protein details: FLAG; only the site is given.

The target of data set [2] is T2, TRF1 purified from HeLa (Homo sapiens) (UniProt P54274).
T2 sequence: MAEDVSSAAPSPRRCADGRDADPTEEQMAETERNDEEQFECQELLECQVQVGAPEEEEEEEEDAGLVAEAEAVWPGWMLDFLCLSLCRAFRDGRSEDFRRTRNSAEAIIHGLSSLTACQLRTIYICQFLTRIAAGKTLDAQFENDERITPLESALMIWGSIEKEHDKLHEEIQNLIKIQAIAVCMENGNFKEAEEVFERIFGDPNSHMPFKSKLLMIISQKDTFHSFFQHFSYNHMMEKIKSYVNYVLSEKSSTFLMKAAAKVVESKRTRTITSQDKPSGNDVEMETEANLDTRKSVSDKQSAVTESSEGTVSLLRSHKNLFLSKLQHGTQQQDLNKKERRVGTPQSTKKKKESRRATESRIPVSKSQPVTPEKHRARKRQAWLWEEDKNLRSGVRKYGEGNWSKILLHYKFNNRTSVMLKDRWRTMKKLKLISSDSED
Briefly: EMSA. Conditions: very weak binding; purified native protein; label: 32P. A general note: Mobility shift assays separate free from complexed probe on a gel.

For some assays here: The comparison behind a weaker result is the experiment's own reference, which may not be listed here. Protein sequences can lack the tags named with them. For some assays here: For at least one entry, the source does not settle the construct or the ends of the probe. For some assays here: Negatives hold for the conditions tested.

As for “TTAGGG (double strand) [telomeric DNA in cells]”, the “activity on this sequence” value in data set [1] was “not active”.

Turning to “TTAGGGTTAGGGTTAGGG (double strand) [[TTAGGG]3 permuted probes]”, in data set [2], the binding result is on record as “binds more weakly”.
